{
  "sequences": {"note": "The chains behind the UniProt entries cited, without tags or fusion partners.", "UniProt P78527": "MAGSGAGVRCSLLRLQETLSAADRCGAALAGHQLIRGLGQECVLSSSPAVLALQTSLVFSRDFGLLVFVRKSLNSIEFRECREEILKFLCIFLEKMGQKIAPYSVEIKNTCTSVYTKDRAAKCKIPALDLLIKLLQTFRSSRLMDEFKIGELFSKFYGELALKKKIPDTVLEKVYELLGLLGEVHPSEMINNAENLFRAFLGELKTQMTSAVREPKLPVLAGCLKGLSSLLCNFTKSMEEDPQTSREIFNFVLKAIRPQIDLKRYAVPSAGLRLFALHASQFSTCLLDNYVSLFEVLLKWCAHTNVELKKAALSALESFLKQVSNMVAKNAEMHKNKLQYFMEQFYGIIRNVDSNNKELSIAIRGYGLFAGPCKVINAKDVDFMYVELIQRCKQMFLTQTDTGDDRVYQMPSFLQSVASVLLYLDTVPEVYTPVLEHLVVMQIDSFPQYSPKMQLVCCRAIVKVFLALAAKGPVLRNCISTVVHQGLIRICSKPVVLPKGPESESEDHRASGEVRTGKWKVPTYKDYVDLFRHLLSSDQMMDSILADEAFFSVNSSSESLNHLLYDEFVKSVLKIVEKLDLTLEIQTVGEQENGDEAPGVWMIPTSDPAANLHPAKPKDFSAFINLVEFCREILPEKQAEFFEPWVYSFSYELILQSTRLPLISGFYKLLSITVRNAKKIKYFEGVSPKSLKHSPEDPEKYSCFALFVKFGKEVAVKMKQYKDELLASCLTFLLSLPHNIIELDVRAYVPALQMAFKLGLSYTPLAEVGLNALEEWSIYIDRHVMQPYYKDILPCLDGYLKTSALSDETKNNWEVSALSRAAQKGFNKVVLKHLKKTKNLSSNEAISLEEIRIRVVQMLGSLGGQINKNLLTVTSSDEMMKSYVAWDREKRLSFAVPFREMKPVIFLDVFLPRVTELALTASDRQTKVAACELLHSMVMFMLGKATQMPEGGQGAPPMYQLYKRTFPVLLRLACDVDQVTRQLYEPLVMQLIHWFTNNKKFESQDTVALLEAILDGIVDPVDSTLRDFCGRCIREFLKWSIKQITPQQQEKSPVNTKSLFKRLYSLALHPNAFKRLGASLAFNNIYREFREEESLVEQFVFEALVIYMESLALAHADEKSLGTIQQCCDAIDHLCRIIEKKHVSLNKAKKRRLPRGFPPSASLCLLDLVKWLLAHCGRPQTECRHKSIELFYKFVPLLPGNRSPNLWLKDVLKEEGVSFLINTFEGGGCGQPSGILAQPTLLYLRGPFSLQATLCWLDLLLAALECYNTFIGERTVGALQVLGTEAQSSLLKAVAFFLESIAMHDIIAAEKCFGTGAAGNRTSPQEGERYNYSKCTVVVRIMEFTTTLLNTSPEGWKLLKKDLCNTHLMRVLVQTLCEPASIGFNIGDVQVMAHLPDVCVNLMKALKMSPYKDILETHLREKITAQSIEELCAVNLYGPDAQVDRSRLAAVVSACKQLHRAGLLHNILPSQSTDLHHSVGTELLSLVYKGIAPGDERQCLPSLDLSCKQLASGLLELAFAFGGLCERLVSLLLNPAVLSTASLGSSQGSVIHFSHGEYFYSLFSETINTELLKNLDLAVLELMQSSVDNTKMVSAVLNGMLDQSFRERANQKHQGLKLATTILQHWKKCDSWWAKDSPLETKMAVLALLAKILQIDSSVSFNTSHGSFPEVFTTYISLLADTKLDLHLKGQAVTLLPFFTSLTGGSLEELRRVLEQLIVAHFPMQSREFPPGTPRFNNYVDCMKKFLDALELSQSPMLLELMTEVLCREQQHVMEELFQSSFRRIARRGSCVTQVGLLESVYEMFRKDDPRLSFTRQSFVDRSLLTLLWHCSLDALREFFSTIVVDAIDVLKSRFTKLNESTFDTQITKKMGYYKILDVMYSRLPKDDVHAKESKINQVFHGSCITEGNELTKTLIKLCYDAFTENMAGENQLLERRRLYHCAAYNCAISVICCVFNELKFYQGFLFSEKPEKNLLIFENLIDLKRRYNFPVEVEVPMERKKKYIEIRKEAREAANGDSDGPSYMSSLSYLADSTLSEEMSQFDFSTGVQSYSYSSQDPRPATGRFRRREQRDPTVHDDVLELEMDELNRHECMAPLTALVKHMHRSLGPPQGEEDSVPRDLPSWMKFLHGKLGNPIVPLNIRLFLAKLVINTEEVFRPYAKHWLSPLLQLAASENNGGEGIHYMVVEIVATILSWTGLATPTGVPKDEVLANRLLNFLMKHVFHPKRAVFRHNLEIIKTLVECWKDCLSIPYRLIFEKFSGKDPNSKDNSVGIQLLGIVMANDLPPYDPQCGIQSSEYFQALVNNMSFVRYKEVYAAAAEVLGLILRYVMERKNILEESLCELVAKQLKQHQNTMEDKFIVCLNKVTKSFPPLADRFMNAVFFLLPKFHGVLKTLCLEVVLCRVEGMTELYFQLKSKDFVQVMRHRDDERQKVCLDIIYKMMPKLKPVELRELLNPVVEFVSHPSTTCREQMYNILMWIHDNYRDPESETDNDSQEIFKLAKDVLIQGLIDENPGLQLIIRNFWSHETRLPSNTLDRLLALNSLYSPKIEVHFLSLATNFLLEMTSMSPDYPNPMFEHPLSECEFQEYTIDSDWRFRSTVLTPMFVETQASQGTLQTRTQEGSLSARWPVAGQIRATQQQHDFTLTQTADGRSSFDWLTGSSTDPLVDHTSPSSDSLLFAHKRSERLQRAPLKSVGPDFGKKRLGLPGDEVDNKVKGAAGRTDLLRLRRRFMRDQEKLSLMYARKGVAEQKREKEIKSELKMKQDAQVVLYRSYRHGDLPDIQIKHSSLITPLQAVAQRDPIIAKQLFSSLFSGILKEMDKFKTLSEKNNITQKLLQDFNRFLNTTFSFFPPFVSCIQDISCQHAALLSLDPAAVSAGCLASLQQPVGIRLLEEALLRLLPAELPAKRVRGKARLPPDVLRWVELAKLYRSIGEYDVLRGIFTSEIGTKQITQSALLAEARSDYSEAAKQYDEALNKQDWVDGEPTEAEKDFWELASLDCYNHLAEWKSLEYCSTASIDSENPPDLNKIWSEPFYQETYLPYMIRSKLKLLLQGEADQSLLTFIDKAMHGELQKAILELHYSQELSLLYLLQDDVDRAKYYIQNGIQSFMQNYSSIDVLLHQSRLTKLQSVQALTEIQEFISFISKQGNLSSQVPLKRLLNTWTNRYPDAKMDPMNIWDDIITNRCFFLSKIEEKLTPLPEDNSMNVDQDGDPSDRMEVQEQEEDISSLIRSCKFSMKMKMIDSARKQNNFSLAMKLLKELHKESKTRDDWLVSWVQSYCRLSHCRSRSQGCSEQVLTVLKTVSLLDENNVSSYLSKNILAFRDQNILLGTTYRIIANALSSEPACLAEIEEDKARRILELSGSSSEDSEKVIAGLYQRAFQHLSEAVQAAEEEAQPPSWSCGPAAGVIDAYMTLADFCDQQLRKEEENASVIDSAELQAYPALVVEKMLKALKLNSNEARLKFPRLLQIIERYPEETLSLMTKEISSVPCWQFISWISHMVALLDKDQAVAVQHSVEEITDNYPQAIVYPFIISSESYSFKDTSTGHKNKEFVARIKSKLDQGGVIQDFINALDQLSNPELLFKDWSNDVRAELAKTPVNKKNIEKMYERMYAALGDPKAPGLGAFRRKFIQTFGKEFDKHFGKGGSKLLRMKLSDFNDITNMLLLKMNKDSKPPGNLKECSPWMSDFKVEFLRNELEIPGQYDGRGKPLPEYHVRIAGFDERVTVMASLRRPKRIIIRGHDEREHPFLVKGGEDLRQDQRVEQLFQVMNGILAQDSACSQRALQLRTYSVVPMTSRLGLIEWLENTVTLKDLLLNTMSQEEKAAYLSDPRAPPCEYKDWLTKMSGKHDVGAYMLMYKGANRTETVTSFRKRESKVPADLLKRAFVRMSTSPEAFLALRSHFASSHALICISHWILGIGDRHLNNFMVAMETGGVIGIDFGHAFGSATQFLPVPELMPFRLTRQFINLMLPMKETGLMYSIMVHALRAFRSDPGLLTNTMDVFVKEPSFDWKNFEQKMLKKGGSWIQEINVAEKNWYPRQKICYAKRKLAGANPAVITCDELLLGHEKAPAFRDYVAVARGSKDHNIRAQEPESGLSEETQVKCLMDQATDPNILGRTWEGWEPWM"},
  "source": "paper PMC9178012",
  "biological_target": "RECQL4 (human (endogenous in U2OS and HCT116)) (UniProt O94761)",
  "test": "affinity purification with mass spectrometry; RECQL4 immunoprecipitated from whole cell lysates of U2OS cells 10 min after 10 Gy IR; SDS-PAGE, mass spectrometry",
  "note": "These are yes or no findings as the source states them, for the method shown. In cells and extracts the contact can be indirect. These calls come from enrichment with a bait or labelling near it, and not all partners need be listed.",
  "data": [
    {"substance": "DNA-PKcs (from UniProt P78527 1-4128)", "values": [
      {"measurement": "binding", "value": "binds"}
    ]}
  ]
}
